Results deposited as PubChem BioAssay AID1159578 (Peter MacCallum Cancer Centre, 2015).

- Aim: 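Knock-downs that alter how fast lymphatic endothelial cells migrate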 (primary screen)
- Cells: human lymphatic endothelial cells
- Reagent: siRNA pool against human genes, 40 nM
- Time to read-out: 48 h after transfection
- Measurement: 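High-content imaging of dye-stained cells in a scratch assay measures filled wound area and nuclei per well; duplicate means given as ratio to mock and robust z-score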
- Reading the numbers: migration robust z-score: higher = faster migration into the scratch; nuclei per well: higher = more cells in the well
- Call rule: 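Migration changed when robust z exceeds 2 or falls below -2 and mean nuclei number is at least 3300; otherwise not called changed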
- Meaning of the calls: active = migration changed; inactive = no migration change, or too few cells
In all, the deposit lists about 18,000 reagents; shown is an unselected part. Of all reagents, about 1,030 (5.7%) got an active call. 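Inactive calls also include pools with fewer than 3300 nuclei, whose migration was not assessed.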 Raw values are not corrected between plates. Unmarked entries are inactive. Not all columns of the deposit are shown.

SORCS3 [SID255355911] scored migration robust z-score -0.46; nuclei per well, duplicate mean 5184.
Knock-down of IL31RA [SID255362945] resulted in: migration robust z-score 0.11; nuclei per well, duplicate mean 5710.
Silencing of CAPSL [SID255362954] resulted in: migration robust z-score -1.03; nuclei per well, duplicate mean 6010.
For BNIPL [SID255363414], the entry reads migration robust z-score -0.44; nuclei per well, duplicate mean 6452.
Against DACT1 [SID255357664] the deposit lists migration robust z-score 0.46; nuclei per well, duplicate mean 5492.
After knock-down of PDZD7 [SID255360590], the record shows migration robust z-score -0.95; nuclei per well, duplicate mean 6168.
After knock-down of SEMA3F [SID255352363], the screen gave migration robust z-score 0.64; nuclei per well, duplicate mean 6878.
MAGEE1 [SID255359553] showed migration robust z-score 0.51; nuclei per well, duplicate mean 5836.
NFYC [SID255351236] gave migration robust z-score -1.72; nuclei per well, duplicate mean 6283.
After knock-down of DSCR9 [SID255364558] the results were migration robust z-score 0.02; nuclei per well, duplicate mean 6386.
For CD2BP2 [SID255355063] the deposit lists migration robust z-score -0.64; nuclei per well, duplicate mean 4540.

Looked up above:
Entry of CD2BP2 [SID255355063] in “migration robust z-score”: -0.64
Value for BNIPL [SID255363414] in “nuclei per well, duplicate mean”: 6452

More results follow.
Silencing of BACE2 [SID255356489] came out at: migration robust z-score 1.12; nuclei per well, duplicate mean 5412.
EIF3I [SID255353724] showed migration robust z-score -3.01 (active); nuclei per well, duplicate mean 5256.
C11orf24 [SID255357944] showed migration robust z-score -0.28; nuclei per well, duplicate mean 6178.
Against FAM131C [SID255365250] the deposit lists migration robust z-score 0.15; nuclei per well, duplicate mean 6214.
Depletion of CIROZ [SID255363380] gave: migration robust z-score 1.85; nuclei per well, duplicate mean 6990.
With knock-down of ZNF519 [SID255363758] the results were migration robust z-score 0.19; nuclei per well, duplicate mean 6439.
Against TARDBP [SID255356242], the entry reads migration robust z-score -1.4; nuclei per well, duplicate mean 5107.
AQP6 [SID255348368] gave migration robust z-score -1.24; nuclei per well, duplicate mean 6628.
MAP2K2 [SID255351822] scored migration robust z-score 0.73; nuclei per well, duplicate mean 5382.
For TRMT10A [SID255362083], the values are migration robust z-score -0.2; nuclei per well, duplicate mean 6468.
